# Assay results taken from PubChem BioAssay AID1259415 (National Center for Advancing Translational Sciences (NCATS), 2018).
# Among all 410,000 compounds or so, about 18,000 (4.4%) were called active. Inconclusive means that the source gave no clear call. Such entries were picked first, then a sample of the others. Rule as the data show it: active = activity change below about -60%; inconclusive = no clear call, values can overlap the other calls; inactive = above about -39%.
# Assay: qHTS Assay for inhibitors of the human cytomegalovirus (HCMV)
# Conditions: HFF cells, HCMV-luciferase reporter, 72 h; at 57.5 µM; hits give low values
# Method in brief: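 Inhibition of viral replication was scored as loss of reporter luminescence in HFFs infected with HCMV-luciferase (MOI 1 PFU/cell) for 72 h; compounds tested at 2 doses, normalized to buffer and Salinomycin controls.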
# % is scaled to controls: 0 for no effect and ±100 for the full control effect.
row,Structure (SMILES),"activity change, negative = inhibition"
1,COc1ccccc1C(=O)Nc1ccc2c(c1)OCO2,inactive: 139%
2,CCSc1ccc2nnc(-c3ccc(F)cc3)n2n1,inconclusive: -47.6%
3,CC(C)NC(=O)CN1CCN(Cc2nc(C(c3ccccc3)c3ccccc3)no2)CC1,inconclusive: -45.7%
4,Cc1ccc(C(=O)NCCN2C3=NC[C@@H](Cc4ccccc4)N3C[C@H]2Cc2ccc(O)cc2)cc1Br,inconclusive: -59.5%
5,Cc1ccc(NC(=O)COC(=O)c2ccco2)cc1C,inactive: -16.6%
6,CCN1CSC(=S)N(Cc2ccc(OC)cc2)C1,inconclusive: -45.3%
7,O=C(CCC(=O)c1ccc(Oc2ccccc2)cc1)Nc1ccc(Cl)cc1Cl,inconclusive: -44%
8,Cc1ccc(S(=O)(=O)Nc2ccc(O)c3ccccc23)c(C)c1,inconclusive: -41.9%
9,CCOC(=O)c1cc(-c2ccc(OC)c(S(=O)(=O)NCc3ccccc3Cl)c2)on1,inconclusive: -43.6%
10,CC1CCCCN1CCCNC(=O)CN1C(=O)CSc2ccc(S(=O)(=O)N3CCOCC3)cc21 (stereo not drawn),inconclusive: -48.9%
11,O=C(Nc1ccc(Oc2cccnc2)nc1)c1ccc(C(F)(F)F)cc1,active: -71.7%
12,Cc1ccc(-n2nc3c(=O)n(CCCC(=O)N4CCC(C)CC4)nc(C)c3c2C)cc1,inconclusive: -40.4%
13,COC(=O)c1cccc(NC(=O)c2ccc3c(c2)C(=O)N(CC2CCCO2)C3=O)c1 (stereo not drawn),inactive: -8.81%
14,COc1ccc(CN2C(=O)C(C)N(C(=O)c3c(F)cccc3F)c3ccccc32)cc1 (stereo not drawn),inconclusive: -42.6%
15,O=C(Nc1ccc(Cc2ccncc2)cc1)C1CCC(N2C(=O)C3CCCCC3C2=O)CC1 (stereo not drawn),inconclusive: -42.1%
16,O=C(NNc1cc(Cl)ccc1Cl)c1cccnc1Cl,inconclusive: -49.8%
17,CCc1ccc(N(CC(=O)NC2CCCC2)C(=O)CCC(=O)Nc2cc(C)on2)cc1,inconclusive: -45.3%
18,CCOC(=O)c1cnc(N2CCN(c3cccc(C)c3C)CC2)c2ccccc12,inactive: 33%
19,O=S(=O)(c1ccc2nnn(OCc3ccccc3)c2c1)N1CCOCC1,inconclusive: -44.2%
20,O=C(NCc1ccccc1OC(F)(F)F)C1CCC(=O)N(C2CC2)C1 (stereo not drawn),inactive: 1.71%
21,Cc1nc2ccc(Cl)cc2c(-c2ccccc2)c1C(=O)N(C)C,inactive: -3.51%

row,Structure (SMILES),"activity change, negative = inhibition"
1,O=C(Oc1ccc(Cl)c2cccnc12)C12CC3CC(CC(C3)C1)C2,inconclusive: -41.5%
2,Cc1ccc(-c2nnn(CC(=O)N(Cc3cccs3)C(C(=O)NC3CCCC3)c3ccncc3)n2)cc1 (stereo not drawn),inconclusive: -50.4%
3,CCOc1ccc(-c2cc(C(=O)NCCCN3CCCC3)c3ccccc3n2)cc1,inconclusive: 0%
4,Cc1ccc(S(=O)(=O)N(CC(=O)N/N=C/c2ccco2)c2cc(Cl)cc(Cl)c2)cc1,inconclusive: -45.2%
5,CC(C)Oc1ccc(CNC(=O)c2ccc3c(c2)nc2n3CCCCC2)cc1,inactive: 83.2%
6,CCc1ccc2[nH]c(=O)c(CN(CCN(CC)CC)C(=S)NCc3ccco3)cc2c1,inconclusive: -48.7%
7,CC(C)(C)C(=O)Nc1ccc(NC(=O)c2ccco2)nc1,active: -95.9%
8,O=S(Cc1ccc(Br)cc1)Cc1nnc(SCc2c(Cl)cccc2Cl)n1-c1ccccc1 (stereo not drawn),inconclusive: -45.1%
9,O=C(c1ccc(CS(=O)(=O)c2ccc(Br)cc2)o1)N1CCCC1,inactive: -24.1%
10,O=C(Nc1ccc2c(c1)OCO2)C1Cc2c(-c3ccc(Cl)cc3)ccnc2O1 (stereo not drawn),inconclusive: -49.7%
11,Clc1ccc(-c2ccnc(-n3cccc3)n2)s1,inconclusive: -54.4%
12,COc1ccc(Cl)cc1C(=O)Nc1ccc2nc(Nc3cccc(Cl)c3)cc(C)c2c1,inconclusive: -41.4%
13,C[C@H]1COC(=O)[C@@H](Cc2ccc(F)cc2)C/C=C\C[C@@H](CC(=O)NCCO)C(=O)N1,inactive: -5.09%
14,COc1ccc2c(c1)C(c1ccc(N(CCCl)CCCl)cc1)=NCC2,inconclusive: -42.3%
15,Cc1sc(NC(=O)/C=C/c2ccc3c(c2)OCO3)nc1-c1ccccc1,inconclusive: -56.9%
16,CC[C@]12c3[nH]c4cc(-c5ccco5)ccc4c3CCN1C(=O)[C@@H](CC(=O)NCC13CC4CC(CC(C4)C1)C3)C[C@@H]2C(=O)N1CCN(C(=O)C2CC2)CC1,inconclusive: -40.6%
17,CN(C)C(=O)Oc1c(Cl)cc(Cl)c2ccccc12,active: -71.3%
18,C=CCn1c(C)cc(C(=O)COC(=O)c2ccc3c(c2)NC(=O)CS3)c1C,inconclusive: -55.2%
19,NC(=S)Cc1nc(-c2ccc(Cl)cc2)cs1,inconclusive: -40.1%
20,Cc1ccn(CCC(=O)NC2CCCc3c2cnn3-c2cccc(C)c2C)n1 (stereo not drawn),inconclusive: -44%
21,CCOc1ccc(NC(=S)NC(=O)Cc2ccccc2)cc1,inconclusive: 0%

# In a second layout: results already given
row	Structure (SMILES)	activity change, negative = inhibition
5	CC(C)Oc1ccc(CNC(=O)c2ccc3c(c2)nc2n3CCCCC2)cc1	inactive: 83.2%
16	CC[C@]12c3[nH]c4cc(-c5ccco5)ccc4c3CCN1C(=O)[C@@H](CC(=O)NCC13CC4CC(CC(C4)C1)C3)C[C@@H]2C(=O)N1CCN(C(=O)C2CC2)CC1	inconclusive: -40.6%
20	Cc1ccn(CCC(=O)NC2CCCc3c2cnn3-c2cccc(C)c2C)n1 (stereo not drawn)	inconclusive: -44%

# Additional records

row,Structure (SMILES),"activity change, negative = inhibition"
1,COc1ccc(-c2nc(CN3CCC(C(=O)NC4CCCc5ccccc54)CC3)c(C)o2)cc1OC (stereo not drawn),inconclusive: -40.6%
2,CCn1c(=O)cc(OCC(=O)N(C)c2ccc(OC)cc2)c2ccccc21,active: -71.7%
3,CCC(=O)N1CCc2cc(Br)cc(S(=O)(=O)N3CCCC(C(=O)Nc4cc(C)ccc4OC)C3)c21 (stereo not drawn),inconclusive: -54.8%
4,COc1ccc([N+](=O)[O-])cc1NC(=O)C(C)N(C)Cc1ccc(Br)cc1 (stereo not drawn),inconclusive: -49.1%
5,Cc1ccc(Cl)cc1N1CCN(C(=O)c2cc3ccc4cccnc4c3[nH]2)CC1,active: -70%
6,CC(C)c1ccc(C2=CC(c3cccc(Cl)c3)n3c(nc4ccccc43)N2)cc1 (stereo not drawn),active: -63.2%
7,CC(C)=CCC[C@H](C)C[C@@H]1Cc2[nH]c(=S)[nH]c(=O)c2[C@@H](c2ccc(F)cc2)O1,inconclusive: -56.1%
8,CC(C)(C)c1ccccc1O,inactive: -2.74%
9,CCN(CC)C(=O)c1cccc(-c2csc(C(O)c3cccc(OC)c3)n2)c1 (stereo not drawn),inconclusive: -51.6%
10,COc1ccc(N2C(=O)CC(NNc3ncc(Cl)cc3Cl)C2=O)cc1 (stereo not drawn),inactive: -25%
11,COc1ccc(OC)c(C2Nc3c(C)cc(C)cc3-c3cc(C)nn32)c1 (stereo not drawn),inactive: 10.5%
12,CCOC(=O)c1csc(NC(=O)C2CCCCC2)n1,inactive: 23.9%
13,O=C1CC(c2cccnc2)=NN1c1ccc(Cl)cc1Cl,active: -100%
14,O=C(O)c1ccc(NN=Cc2cc(=O)[nH]c(=O)[nH]2)cc1,inconclusive: -47.5%
15,CCCOc1ccc2cc(C(=O)NCc3ccccc3)c(=O)oc2c1,inconclusive: -53.5%
16,Cc1coc2c(C)c3oc(=O)c(CCC(=O)NCc4ccccn4)c(C)c3cc12,inconclusive: -52.6%
17,C=CCC[C@H](Cc1ccc(F)cc1)C(=O)OC[C@H](C)NC(=O)[C@H](CC=C)CC(=O)NCCO,active: -69.3%
18,CCNc1nc(NCC)n2c(SC(C)C(=O)c3ccc(C)cc3)nnc2n1 (stereo not drawn),inconclusive: -50.3%
19,CCn1c(=O)c(-c2nc3ccccc3[nH]2)c(O)c2ccccc21,inactive: 35.8%
20,Cc1nc2c(c3c1[nH]c1ccccc13)C(O)CC(C)(C)C2 (stereo not drawn),active: -89.8%
21,CCN(CC)S(=O)(=O)c1ccc(C)c(NCC(=O)Nc2ccc(C#N)c(Cl)c2)c1,inconclusive: -59.7%

row,Structure (SMILES),"activity change, negative = inhibition"
1,Cc1nc2sccn2c(=O)c1S(=O)(=O)N1CCN(c2ccccc2)CC1,inactive: 14.6%
2,O=C(O)c1ccc(CSc2nnc(-c3cccnc3)n2-c2ccc(Br)cc2)cc1,inconclusive: -42%
3,COc1ccc(/C=N/OCC(=O)NC(c2ccccc2)c2ccccc2)cc1OC,active: -65.5%
4,CO[C@H]1C=C2CCN(C)[C@H]2C2c3cc4c(cc3C(=O)O[C@@H]21)OCO4 (stereo partly drawn),active: -63.3%
5,Cc1ccc(C(=O)NC(=S)Nc2nc(-c3cccc([N+](=O)[O-])c3)cs2)c(Cl)c1,inconclusive: -55.5%
6,Oc1c(C(c2ccccc2)N2CCOCC2)sc2nc(-c3ccco3)nn12 (stereo not drawn),inconclusive: -41.9%
7,CCn1c2ccccc2c2cc(NC(=O)COC(=O)c3ccccc3Br)ccc21,inconclusive: -56.5%
8,O=C(Cc1ccccc1)N1CCN(Cc2ccc([N+](=O)[O-])cc2)CC1,inconclusive: -48.1%
9,CC(=O)Nc1sc2c(c1C(c1cccs1)N1CCOCC1)CCCC2 (stereo not drawn),inactive: -16%
10,S=C(Nc1ccccc1)N1N=C(c2cccs2)CC1c1cccs1 (stereo not drawn),inconclusive: -53.5%
11,C/C(=N\N=C1\NC(=O)C(Cc2ccccc2)S1)c1ccccc1 (stereo not drawn),inactive: 22.4%
12,CCC(=O)N1CCc2cc(S(=O)(=O)NCCC(=O)Nc3cc(C)cc(C)c3)ccc21,inactive: -20.9%
13,CCOc1ccc(C(=O)NC(=S)Nc2ccc(NC(=O)c3ccco3)cc2)cc1[N+](=O)[O-],inactive: -31.7%
14,COc1ccc2c(c1OC)C(=O)N(c1ccccc1)C2=O,inconclusive: -57.2%
15,O=C(CSc1nc2ccccc2c(=O)n1-c1ccc(Cl)cc1)N/N=C/C=C/c1ccccc1[N+](=O)[O-],inconclusive: -41.9%
16,C[C@@H]1C=C(C(=O)N2CCN(Cc3ccc4c(c3)OCO4)CC2)O[C@H](OCCCCO)C1,inactive: -8.17%
17,O=C(NCc1ccco1)C(c1cccs1)N(C(=O)C1COc2ccccc2O1)c1cccc(O)c1 (stereo not drawn),inconclusive: -41.9%
18,Cc1ccc(S(=O)(=O)N2CC3C(=O)C[C@@H](c4ccccc4)N(S(=O)(=O)c4ccccc4Cl)C3CC2c2ccccc2)cc1 (stereo partly drawn),inactive: -38%
19,O=C(c1ccc2c(c1)OCO2)C1CCCN(C(=O)NCc2ccccc2)C1 (stereo not drawn),inconclusive: -42.6%
20,CCCCCCOc1ccc(N2C(=O)CC(SC(=NCC)NCC)C2=O)cc1 (stereo not drawn),inconclusive: -52%
